These are yes or no findings as the source states them, for the method shown. Binding can be weak; no strength is given.
Biological target: KSBcl-2
Assay: solution binding of N-terminal fluorescein peptide (FIG. 1)

Row | binding | Binder
1 | binds | RPEIWMGQGLRRLGDEINAYYAR (N-terminal fluorescein) [A12 peptide with N-terminal fluorescein]
2 | binds | RPEIWLGQSLQRLGDEINAYYAR (N-terminal fluorescein) [B3 peptide with N-terminal fluorescein]
